At least one compound was matched to its structure with a doubt left.
Test system: parasitemia
Experiment: onset of drug action and recrudescence after single oral dose
Format: in vivo
Conditions: single 100 mg/kg po; monitored 12 h after treatment
Method: The reduction of parasitemia was monitored 12 h after treatment, and the time of recrudescence was assessed by daily blood smears for 14 days, followed by intermittent assessment for up to 30 days.

CO[C@H]1O[C@@H]2O[C@@]3(C)CC[C@H]4[C@H](C)CC[C@@H]([C@H]1C)[C@@]24OO3 [Artemether, artemether, reference compound]
onset of action: decline in parasitemia: rapid decline in parasitemia
